# Data as given in PubChem BioAssay AID248 (DTP/NCI, 2004).
# The list shows only some results of the screen, not a fair sample: it gathers tests that were run many times, whatever their T/C, doses with no T/C, and many T/C values between a quarter and a half above the control. Further doses and runs are listed elsewhere. T/C is the treated group as % of the vehicle group. Some doses have a count of surviving animals in place of a T/C: the source holds a T/C of zero for them, seemingly a mark for toxic or unscored doses. Some doses without a T/C left all or most animals alive at the check, yet need not have been tolerated: survival well below the control is almost never listed, so the zero probably covers shortened survival too. Counts of survivors are from the toxicity check (mostly the fifth day) where no day follows; animals may have died later. Schedule codes are those of the source, taken here to give the interval after Q, in days (D) or hours (H), and the number of doses after X. Some doses were run more than once; the values are given in rising order. Where survival is the endpoint, this PubChem deposit counts one and a half times the control or more as active, and values a quarter to a half above the control carry no call in these data; other NCI protocols may use other cut-offs.
# Tested on: L1210 leukemia ip in BDF1 mice, survival T/C
# Assay: NCI In Vivo Anticancer Drug Screen. Data for tumor model L1210 Leukemia (intraperitoneal) in B6D2F1 (BDF1) mice
# Details: T/C endpoint: mean survival time, higher T/C = longer survival
# [1] = dose: 400.0 mg/kg/injection, schedule: Q04DX003 (ip), vehicle: saline with Tween-80
# [2] = dose: 400.0 mg/kg/injection, schedule: Q01DX009 (ip), vehicle: water
# [3] = dose: 100.0 mg/kg/injection, schedule: Q04DX002 (ip), vehicle: saline with Tween-80
# [4] = dose: 200.0 mg/kg/injection, schedule: Q04DX002 (ip), vehicle: saline with Tween-80
# [5] = dose: 400.0 mg/kg/injection, schedule: Q04DX002 (ip), vehicle: saline with Tween-80
# [6] = dose: 40.0 mg/kg/injection, schedule: Q01DX001 (ip), vehicle: saline
# [7] = dose: 200.0 mg/kg/injection, schedule: Q01DX001 (ip), vehicle: saline
# [8] = dose: 400.0 mg/kg/injection, schedule: Q01DX001 (ip), vehicle: saline
# [9] = dose: 400.0 mg/kg/injection, schedule: Q01DX009 (ip), vehicle: saline with Tween-80
# [10] = dose: 400.0 mg/kg/injection, schedule: Q01DX009 (ip), vehicle: Klucel (hydroxypropylcellulose) (HPC)
# [11] = dose: 400.0 mg/kg/injection, schedule: Q01DX001 (ip), vehicle: carboxymethylcellulose (CMC)
smiles,measurement,setting,value
O=C1C(O)=C(c2ccc(O)cc2)C(=O)C(O)=C1c1ccc(O)cc1,survivor count,"dose: 100.0 mg/kg/injection, schedule: Q04DX002 (ip), vehicle: Klucel (hydroxypropylcellulose) (HPC)",3 of 3
same,survivor count,"dose: 200.0 mg/kg/injection, schedule: Q04DX002 (ip), vehicle: Klucel (hydroxypropylcellulose) (HPC)",1 of 3
same,survivor count,"dose: 400.0 mg/kg/injection, schedule: Q04DX002 (ip), vehicle: Klucel (hydroxypropylcellulose) (HPC)",0 of 3
CCCCCCCCCCCCCCCC(=O)N(CCCCN(CCCN(C)C)C(=O)CCCCCCCCCCCCCCC)CCCN(C)C,survivor count,"dose: 200.0 mg/kg/injection, schedule: Q04DX003 (ip), vehicle: saline with Tween-80",0 of 6
same,survivor count,[1],0 of 6
CCN(CCCl)CCCNc1c2ccccc2nc2c1ccc1cccnc12,survivor count,"dose: 2.5 mg/kg/injection, schedule: Q01DX009 (ip), vehicle: saline",4 of 6
same,survivor count,"dose: 5.0 mg/kg/injection, schedule: Q01DX009 (ip), vehicle: saline",1 of 6
same,survivor count,"dose: 7.5 mg/kg/injection, schedule: Q01DX009 (ip), vehicle: saline",0 of 6
same,survivor count,"dose: 10.0 mg/kg/injection, schedule: Q01DX009 (ip), vehicle: saline",0 of 6
CC(C)(CO)CO,survivor count,"dose: 200.0 mg/kg/injection, schedule: Q04DX002 (ip), vehicle: saline",0 of 3
same,survivor count,"dose: 400.0 mg/kg/injection, schedule: Q04DX002 (ip), vehicle: saline",0 of 3
CC(C)CC([NH-])C(=O)O.CC(C)CC([NH-])C(=O)O.CC(C)CC([NH-])C(=O)O.[Co+3] (stereo unspecified),survivor count,"dose: 100.0 mg/kg/injection, schedule: Q01DX009 (ip), vehicle: water",6 of 6
same,survivor count,"dose: 200.0 mg/kg/injection, schedule: Q01DX009 (ip), vehicle: water",6 of 6
same,survivor count,[2],0 of 6
same,survivor count,"dose: 400.0 mg/kg/injection, schedule: Q04DX003 (ip), vehicle: water",4 of 6
CNC(=O)OCC1=CC(=O)C(C)=CC1=O,survivor count,"dose: 50.0 mg/kg/injection, schedule: Q04DX003 (ip), vehicle: gum acacia",0 of 6
same,survivor count,"dose: 100.0 mg/kg/injection, schedule: Q04DX003 (ip), vehicle: gum acacia",1 of 6
same,survivor count,"dose: 200.0 mg/kg/injection, schedule: Q04DX003 (ip), vehicle: gum acacia",0 of 6
same,survivor count,"dose: 400.0 mg/kg/injection, schedule: Q04DX003 (ip), vehicle: gum acacia",0 of 6
Cc1nnc2nc3c(nn12)c1ccccc1n3C,survivor count,[3],0 of 3
same,survivor count,[4],0 of 3
same,survivor count,[5],1 of 3
CC(=O)Nc1ccc2c(ccc3cccc[n+]32)c1,survivor count,[6],1 of 4
same,survivor count,"dose: 80.0 mg/kg/injection, schedule: Q01DX001 (ip), vehicle: saline",0 of 4
same,survivor count,"dose: 100.0 mg/kg/injection, schedule: Q01DX001 (ip), vehicle: saline",0 of 4
same,survivor count,[7],0 of 4
same,survivor count,[8],0 of 4
C1=Nc2ccccc2/C1=C/c1cccs1,survivor count,"dose: 400.0 mg/kg/injection, schedule: Q04DX003 (ip), vehicle: carboxymethylcellulose (CMC)",6 of 6
O=C1CCCC[CH]1[Hg][Cl] (stereo unspecified),survivor count,"dose: 10.0 mg/kg/injection, schedule: Q01DX001 (ip), vehicle: saline",0 of 6
same,survivor count,"dose: 20.0 mg/kg/injection, schedule: Q01DX001 (ip), vehicle: saline",0 of 6
same,survivor count,[6],0 of 6
same,survivor count,"dose: 75.0 mg/kg/injection, schedule: Q01DX001 (ip), vehicle: saline",0 of 6
same,survivor count,"dose: 150.0 mg/kg/injection, schedule: Q01DX001 (ip), vehicle: saline",0 of 6
same,survivor count,"dose: 300.0 mg/kg/injection, schedule: Q01DX001 (ip), vehicle: saline",0 of 6
O=NN(CC(=O)O)C(c1ccccc1)(c1ccccc1)c1ccccc1Cl,survivor count,"dose: 400.0 mg/kg/injection, schedule: Q04DX003 (ip), vehicle: Klucel (hydroxypropylcellulose) (HPC)",2 of 6
CC(CN1CCN(CCOCCO)CC1)CN1c2ccccc2Sc2ccc(Cl)cc21 (stereo unspecified),survivor count,"dose: 0.19 mg/kg/injection, schedule: Q01DX009 (ip), vehicle: saline",6 of 6
same,survivor count,"dose: 25.0 mg/kg/injection, schedule: Q04DX003 (ip), vehicle: saline",2 of 4
same,survivor count,"dose: 50.0 mg/kg/injection, schedule: Q04DX003 (ip), vehicle: saline",0 of 4
same,survivor count,"dose: 100.0 mg/kg/injection, schedule: Q04DX003 (ip), vehicle: saline",0 of 4
same,survivor count,"dose: 200.0 mg/kg/injection, schedule: Q04DX003 (ip), vehicle: saline",0 of 4
same,survivor count,"dose: 400.0 mg/kg/injection, schedule: Q04DX003 (ip), vehicle: saline",0 of 4
NC(=S)N/N=C\c1nccc2c(N)cccc12,T/C,"dose: 12.5 mg/kg/injection, schedule: Q01DX009 (ip), vehicle: saline with Tween-80",142 % of control
same,T/C,"dose: 25.0 mg/kg/injection, schedule: Q01DX009 (ip), vehicle: saline with Tween-80",127 % of control
same,T/C,"dose: 75.0 mg/kg/injection, schedule: Q01DX009 (ip), vehicle: saline with Tween-80",133 % of control
same,T/C,[3],128 % of control
same,T/C,[4],128 % of control
same,T/C,[5],139 % of control
CC(C)(N)CCC(C)(C)NCCCN,survivor count,[2],1 of 6
Nc1nc(=O)n(CC(=O)c2cccs2)cc1F,survivor count,"dose: 200.0 mg/kg/injection, schedule: Q01DX009 (ip), vehicle: saline with Tween-80",1 of 6 and 3 of 6
same,survivor count,[9],0 of 6
CCOP(=O)(OCC)Oc1ccc(Sc2ccc(OP(=O)(OCC)OCC)cc2)cc1,survivor count,[7],3 of 6
same,survivor count,[8],0 of 6
COc1ccccc1N=Nc1c(O)n(-c2ccccc2C)c(=S)n(-c2ccccc2)c1=O,survivor count,"dose: 400.0 mg/kg/injection, schedule: Q01DX001 (ip), vehicle: Klucel (hydroxypropylcellulose) (HPC)",2 of 6
O=C(Nc1ccc(Cl)c([N+](=O)[O-])c1)Oc1ccccc1F,survivor count,[10],0 of 6
O=S(=O)(F)c1ccc(CBr)cc1,survivor count,[7],2 of 6
same,survivor count,[8],0 of 6
CC(=O)CC(C)=NCC(C)N=C(C)CC(C)=O (stereo unspecified),survivor count,[9],6 of 6
O=C(O)c1ccc(OCCCOc2ccccc2)c(Cl)c1,survivor count,[1],0 of 6
ClCC1CC2C=CC1C2 (stereo unspecified),survivor count,"dose: 100.0 mg/kg/injection, schedule: Q01DX009 (ip), vehicle: Klucel (hydroxypropylcellulose) (HPC)",1 of 6
same,survivor count,[3],0 of 3 and 1 of 4
same,survivor count,"dose: 200.0 mg/kg/injection, schedule: Q01DX009 (ip), vehicle: Klucel (hydroxypropylcellulose) (HPC)",0 of 6
same,survivor count,[4],0 of 3
same,survivor count,[5],0 of 3
O=C(Nc1ccccc1F)c1ccco1,survivor count,[10],3 of 6
CCO/C=C/c1ccccc1,survivor count,[1],3 of 6
O=C1C(O)=C(c2ccc(Br)cc2)C(=O)C(O)=C1c1ccc(Br)cc1,survivor count,"dose: 150.0 mg/kg/injection, schedule: Q01DX001 (ip), vehicle: other",6 of 6
same,survivor count,"dose: 300.0 mg/kg/injection, schedule: Q01DX001 (ip), vehicle: other",0 of 6
CCCN(CCC)C[Si](C)(C)C,survivor count,"dose: 100.0 mg/kg/injection, schedule: Q01DX001 (ip), vehicle: carboxymethylcellulose (CMC)",0 of 4
same,survivor count,"dose: 200.0 mg/kg/injection, schedule: Q01DX001 (ip), vehicle: carboxymethylcellulose (CMC)",0 of 4
same,survivor count,[11],0 of 4
O=C(CN1C(=O)C2CCCCC2C1=O)N1CC1 (stereo unspecified),survivor count,[11],0 of 6
